Measurements published in PubChem BioAssay AID280 (DTP/NCI, 2004).
The list shows only some results of the screen, not a fair sample: it gathers tests that were run many times, whatever their T/C, doses with no T/C, and many T/C values between a quarter and a half above the control. Other doses and runs of a compound stand elsewhere. T/C is the treated group as % of the vehicle group. Some doses have a count of surviving animals in place of a T/C: the source holds a T/C of zero for them, seemingly a mark for toxic or unscored doses. Some survivor counts are full or nearly so, which does not show that the dose was tolerated: survival well below the control is almost never listed, so the zero probably covers shortened survival too. Survivors were counted at the toxicity check, usually on the fifth day, unless a day is given; later deaths do not show. Schedule codes are those of the source, taken here to give the interval after Q, in days (D) or hours (H), and the number of doses after X. For survival time, this PubChem deposit counts one and a half times the control or more as active, and values a quarter to a half above the control carry no call in these data; other NCI protocols may use other cut-offs. Some T/C values are followed by the survivors on the day toxicity was checked, most often the fifth; without a count, all were alive then.

System: nude mice, LOX melanoma ip, survival T/C
Assay: NCI In Vivo Anticancer Drug Screen. Data for tumor model Human Amelanotic Melanoma (LOX) (intraperitoneal) in NU/NU BALB/C (nude) mice
Conditions: T/C endpoint: median survival time, higher T/C = longer survival
Procedure: The antitumor activity of compounds was measured in mice bearing transplantable tumors. Survival or tumor size were measured and the results are expressed as the measurement made in the treated group (T) divided by the measurement made in the vehicle treated control group (C). The tumor model used in this assay is Human Amelanotic Melanoma (LOX) (intraperitoneal) in NU/NU BALB/C (nude) mice

[1] = dose: 600.0 mg/kg/injection, schedule: Q04DX003 (ip), vehicle: saline with Tween-80
[2] = dose: 400.0 mg/kg/injection, schedule: Q04DX003 (ip), vehicle: saline with Tween-80
[3] = dose: 50.0 mg/kg/injection, schedule: Q04DX003 (ip), vehicle: suspension in saline
[4] = dose: 100.0 mg/kg/injection, schedule: Q04DX003 (ip), vehicle: suspension in saline
[5] = dose: 200.0 mg/kg/injection, schedule: Q04DX003 (ip), vehicle: suspension in saline
[6] = dose: 400.0 mg/kg/injection, schedule: Q04DX003 (ip), vehicle: suspension in saline
[7] = dose: 75.0 mg/kg/injection, schedule: Q04DX003 (ip), vehicle: Klucel (hydroxypropylcellulose) (HPC)
[8] = dose: 1200.0 mg/kg/injection, schedule: Q04DX003 (ip), vehicle: Klucel (hydroxypropylcellulose) (HPC)

How did the T/C (dose: 7.5 mg/kg/injection, schedule: Q03HX008 (ip), vehicle: other) turn out when O=NNc1cnccn1 was run?
Its T/C is 125 % of control.

What about the T/C (dose: 16.9 mg/kg/injection, schedule: Q03HX008 (ip), vehicle: other) of the same compound?
The T/C was 145 % of control.

What about the T/C (dose: 25.0 mg/kg/injection, schedule: Q04DX003 (ip), vehicle: water) of the same compound?
Its T/C is 128 % of control.

What about the T/C (dose: 25.3 mg/kg/injection, schedule: Q01DX005 (iv), vehicle: other) of the same compound?
Its T/C is 132 % of control.

What about the T/C (dose: 29.7 mg/kg/injection, schedule: Q04DX003 (ip), vehicle: water) of the same compound?
The T/C was 131 % of control.

And the survivor count (dose: 38.0 mg/kg/injection, schedule: Q03HX008 (ip), vehicle: other)?
The survivor count was 4 of 10 on day 14.

What about the T/C (dose: 38.0 mg/kg/injection, schedule: Q04DX003 (ip), vehicle: other) of the same compound?
The T/C was 131 % of control.

And the T/C (dose: 38.0 mg/kg/injection, schedule: Q08DX002 (ip), vehicle: other)?
Its T/C is 138 % of control.

What about the survivor count (dose: 57.0 mg/kg/injection, schedule: Q03HX008 (ip), vehicle: other) of the same compound?
The survivor count was 0 of 10 on day 14.

And the T/C (dose: 57.0 mg/kg/injection, schedule: Q08DX002 (ip), vehicle: other)?
Its T/C is 145 % of control.

And the T/C (dose: 85.4 mg/kg/injection, schedule: Q01DX001 (ip), vehicle: other)?
Its T/C is 125 % of control.

What about the survivor count (dose: 85.4 mg/kg/injection, schedule: Q01DX005 (iv), vehicle: other) of the same compound?
The survivor count was 10 of 10 on day 14.

What about the T/C (dose: 128.0 mg/kg/injection, schedule: Q01DX001 (iv), vehicle: other) of the same compound?
Its T/C is 133 % of control.

What about the survivor count (dose: 128.0 mg/kg/injection, schedule: Q01DX005 (iv), vehicle: other) of the same compound?
The survivor count was 0 of 10 on day 14.

And the T/C (dose: 192.0 mg/kg/injection, schedule: Q01DX001 (iv), vehicle: other)?
The T/C was 135 % of control.

What about the survivor count (dose: 192.0 mg/kg/injection, schedule: Q04DX003 (ip), vehicle: other) of the same compound?
The survivor count was 10 of 10 on day 14.

What about the survivor count (dose: 192.0 mg/kg/injection, schedule: Q04DX003 (iv), vehicle: other) of the same compound?
Its survivor count is 10 of 10 on day 14.

And the survivor count (dose: 287.8 mg/kg/injection, schedule: Q01DX001 (ip), vehicle: other)?
The survivor count was 10 of 10 on day 14.

And the survivor count (dose: 287.8 mg/kg/injection, schedule: Q01DX001 (iv), vehicle: other)?
The survivor count was 7 of 10 on day 14.

What about the survivor count (dose: 287.8 mg/kg/injection, schedule: Q08DX002 (ip), vehicle: other) of the same compound?
Its survivor count is 10 of 10 on day 14.

COc1ccc(C[C@@H]2NC[C@@H](O)[C@@H]2OC(C)=O)cc1 was tested. Which survivor count [1] did it give?
The survivor count was 1 of 6 on day 10.

How did the T/C (dose: 60.0 mg/kg/injection, schedule: Q04DX003 (ip), vehicle: saline) turn out when CCN(CC)CC(C)(C)C(=O)/C=C/c1ccc(/C=C/C(=O)C(C)(C)CN(CC)CC)cc1 was run?
The T/C was 132 % of control [5 of 6 alive on day 10].

What about the survivor count (dose: 120.0 mg/kg/injection, schedule: Q04DX003 (ip), vehicle: saline) of the same compound?
The survivor count was 0 of 6 on day 10.

CCC(=O)Sc1ccccc1C(=O)Nc1ccc(Cl)cc1 was tested. Which survivor count [2] did it give?
Its survivor count is 3 of 6 on day 10.

With c1ccc(OCC2CO2)c(OCC2CO2)c1 (stereo unspecified) as the compound, how does the T/C (dose: 150.0 mg/kg/injection, schedule: Q04DX003 (ip), vehicle: saline with Tween-80) read?
The T/C was 141 % of control.

And the survivor count [1]?
The survivor count was 1 of 6 on day 10.

For COc1cc2c[n+](C)c3c(c2cc1OC)Cc1cc2c(cc1-3)OCO2, which T/C (dose: 37.5 mg/kg/injection, schedule: Q04DX003 (ip), vehicle: saline with Tween-80) is on record?
Its T/C is 130 % of control.

What about the T/C (dose: 75.0 mg/kg/injection, schedule: Q04DX003 (ip), vehicle: saline with Tween-80) of the same compound?
Its T/C is 147 % of control.

What about the survivor count (dose: 300.0 mg/kg/injection, schedule: Q04DX003 (ip), vehicle: saline with Tween-80) of the same compound?
Its survivor count is 2 of 6 on day 10.

With NC(Cc1ccccc1)C(=O)OCN1C(=O)C2C3C=CC(C2C1=O)C1C2C(=O)N(COC(=O)C(N)Cc4ccccc4)C(=O)C2C31 (stereo unspecified) as the compound, how does the survivor count (dose: 400.0 mg/kg/injection, schedule: Q04DX003 (ip), vehicle: water) read?
The survivor count was 0 of 6 on day 10.

Which results are given for CC(=O)Nc1ccc(Nc2ccc(C(=C3C=CC(=[N+](C)CCC#N)C=C3)c3ccc(N(C)CCC#N)cc3)cc2)cc1?
T/C (dose: 18.0 mg/kg/injection, schedule: Q04DX003 (ip), vehicle: suspension in saline): 125 % of control; T/C (dose: 25.0 mg/kg/injection, schedule: Q04DX003 (ip), vehicle: suspension in saline): 133 % of control; T/C [3]: 147 % of control; T/C [4]: 126 % of control; survivor count (dose: 139.0 mg/kg/injection, schedule: Q04DX003 (ip), vehicle: suspension in saline): 3 of 6 on day 10; survivor count [5]: 1 of 6 on day 10; survivor count [6]: 1 of 4 on day 10

Which results are given for N=C(N)c1ccc(N=Nc2c(O)ccc3cc(O)ccc23)cc1?
survivor count [7]: 5 of 6 on day 10; survivor count (dose: 150.0 mg/kg/injection, schedule: Q04DX003 (ip), vehicle: Klucel (hydroxypropylcellulose) (HPC)): 6 of 6 on day 10

N=C(N)c1ccc(Nc2ccc(-c3cc4ccc(C(=N)N)cc4[nH]3)cc2)cc1 was tested. Which T/C (dose: 1.87 mg/kg/injection, schedule: Q04DX003 (ip), vehicle: saline) did it give?
The T/C was 130 % of control.

What about the T/C (dose: 3.75 mg/kg/injection, schedule: Q04DX003 (ip), vehicle: saline) of the same compound?
The T/C was 133 % of control.

And the T/C (dose: 7.5 mg/kg/injection, schedule: Q04DX003 (ip), vehicle: saline)?
Its T/C is 139 % of control.

And the T/C (dose: 15.0 mg/kg/injection, schedule: Q04DX003 (ip), vehicle: saline)?
The T/C was 139 % of control.

What about the survivor count (dose: 30.0 mg/kg/injection, schedule: Q04DX003 (ip), vehicle: saline) of the same compound?
Its survivor count is 2 of 6 on day 10.

With CN(C)C(=O)Nc1ccc(Cl)cc1 as the compound, how does the survivor count (dose: 1200.0 mg/kg/injection, schedule: Q04DX003 (ip), vehicle: suspension in saline) read?
The survivor count was 0 of 6 on day 10.

How did the T/C (dose: 60.0 mg/kg/injection, schedule: Q04DX003 (ip), vehicle: saline with Tween-80) turn out when O=C1CN(c2ccccc2)C(=O)C1C(=O)Nc1ccc(Cl)c(Cl)c1 (stereo unspecified) was run?
Its T/C is 125 % of control.

And the T/C (dose: 240.0 mg/kg/injection, schedule: Q04DX003 (ip), vehicle: saline with Tween-80)?
Its T/C is 132 % of control.

And the survivor count (dose: 480.0 mg/kg/injection, schedule: Q04DX003 (ip), vehicle: saline with Tween-80)?
The survivor count was 3 of 6 on day 10.

And the survivor count (dose: 960.0 mg/kg/injection, schedule: Q04DX003 (ip), vehicle: saline with Tween-80)?
The survivor count was 1 of 6 on day 10.

What does the source list for Oc1ccc(/C=N/Nc2nnc(N/N=C/c3ccc(O)cc3O)c3ccccc23)c(O)c1?
T/C [3]: 131 % of control [4 of 6 alive on day 10]; T/C [4]: 131 % of control; T/C [5]: 148 % of control

Which survivor count (dose: 100.0 mg/kg/injection, schedule: Q04DX003 (ip), vehicle: saline with Tween-80) does the source give for CCCCCC1c2cc(O)ccc2OC1N1CCOCC1 (stereo unspecified) here?
Its survivor count is 6 of 6 on day 10.

What about the survivor count [2] of the same compound?
Its survivor count is 5 of 6 on day 10.

How did the survivor count [5] turn out when CCC1OC(OC)C=CC1=O (stereo unspecified) was run?
Its survivor count is 0 of 6 on day 10.

And the survivor count [6]?
Its survivor count is 0 of 6 on day 10.

What does the source list for O=C1CNC(=O)N1CN1CCOCC1?
T/C [7]: 132 % of control; T/C (dose: 300.0 mg/kg/injection, schedule: Q04DX003 (ip), vehicle: Klucel (hydroxypropylcellulose) (HPC)): 145 % of control; T/C [8]: 139 % of control [5 of 6 alive on day 10]

COc1ccc2[nH]c3ccc4cc[n+](CCN5CCC(C6CCN(CC[n+]7ccc8ccc9[nH]c%10ccc(OC)cc%10c9c8c7)CC6)CC5)cc4c3c2c1 was tested. Which T/C (dose: 8.0 mg/kg/injection, schedule: Q04DX003 (ip), vehicle: water) did it give?
Its T/C is 149 % of control.

And the survivor count (dose: 63.3 mg/kg/injection, schedule: Q04DX003 (ip), vehicle: water)?
Its survivor count is 1 of 5 on day 10.

What about the survivor count (dose: 64.0 mg/kg/injection, schedule: Q04DX003 (ip), vehicle: water) of the same compound?
The survivor count was 0 of 6 on day 10.

And the survivor count (dose: 105.6 mg/kg/injection, schedule: Q04DX003 (ip), vehicle: water)?
Its survivor count is 0 of 5 on day 10.

And the survivor count (dose: 106.67 mg/kg/injection, schedule: Q04DX003 (ip), vehicle: water)?
Its survivor count is 0 of 6 on day 10.

With COc1cccc(Sc2ccc([N+](=O)[O-])c3no[n+]([O-])c23)c1 as the compound, how does the survivor count [1] read?
The survivor count was 3 of 6 on day 10.

Which survivor count [8] does the source give for CN(C)C(=O)SC1=C(c2c(Cl)cccc2Cl)C(=O)c2ccccc21 here?
The survivor count was 2 of 4 on day 10.
